# Measured values as given in publication PMC8384837.
# Numbering of substitutions follows the chain as printed. This is one part of the list. For some of these results: At the low end of the ranking the order means little.
# Columns and labels:
# Details in all cases: yeast three-hybrid, YBZ-1, SC-Leu-His + 0.5 mM 3-AT, 4 days
# [1] = biological target: T1, PUM1 PUF domain R6-CWS N1043C + Y1044W + Q1047S (UniProt Q14671)
# T1 sequence: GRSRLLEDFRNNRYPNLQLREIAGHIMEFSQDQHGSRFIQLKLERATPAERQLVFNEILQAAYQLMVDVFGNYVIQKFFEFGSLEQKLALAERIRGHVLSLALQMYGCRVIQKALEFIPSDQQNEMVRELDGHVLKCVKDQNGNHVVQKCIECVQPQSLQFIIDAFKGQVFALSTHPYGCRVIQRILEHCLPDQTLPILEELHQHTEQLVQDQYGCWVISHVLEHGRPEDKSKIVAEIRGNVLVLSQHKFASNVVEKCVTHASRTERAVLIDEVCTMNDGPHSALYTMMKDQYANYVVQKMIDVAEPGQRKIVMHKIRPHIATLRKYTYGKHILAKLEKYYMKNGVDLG
# [2] = biological target: T2, PUM1 PUF domain R6-CYE N1043C + Q1047E (UniProt Q14671)
# T2 sequence: T1 sequence with W217Y, S220E
# [3] = biological target: T3, PUM1 PUF domain R6-CYL N1043C + Q1047L (Homo sapiens) (UniProt Q14671)
# T3 sequence: T1 sequence with W217Y, S220L
# [4] = biological target: T4, PUM1 PUF domain R6-CYT N1043C + Q1047T (Homo sapiens) (UniProt Q14671)
# T4 sequence: T1 sequence with W217Y, S220T
# [5] = biological target: T5, PUM1 PUF domain R6-DFE N1043D + Y1044F + Q1047E (UniProt Q14671)
# T5 sequence: T1 sequence with C216D, W217F, S220E
# [6] = biological target: T6, PUM1 PUF domain R6-DFQ N1043D + Y1044F (UniProt Q14671)
# T6 sequence: T1 sequence with C216D, W217F, S220Q
# [7] = biological target: T7, PUM1 PUF domain R6-DWI N1043D + Y1044W + Q1047I (UniProt Q14671)
# T7 sequence: T1 sequence with C216D, S220I
# [8] = biological target: T8, PUM1 PUF domain R6-DWV N1043D + Y1044W + Q1047V (UniProt Q14671)
# T8 sequence: T1 sequence with C216D, S220V
# [9] = biological target: T9, PUM1 PUF domain R6-DYQ N1043D (UniProt Q14671)
# T9 sequence: T1 sequence with C216D, W217Y, S220Q
# [10] = biological target: T10, PUM1 PUF domain R6-EWG N1043E + Y1044W + Q1047G (UniProt Q14671)
# T10 sequence: T1 sequence with C216E, S220G
# [11] = biological target: T11, PUM1 PUF domain R6-EWV N1043E + Y1044W + Q1047V (UniProt Q14671)
# T11 sequence: T1 sequence with C216E, S220V
# [12] = biological target: T12, PUM1 PUF domain R6-FHS N1043F + Y1044H + Q1047S (UniProt Q14671)
# T12 sequence: T1 sequence with C216F, W217H
# [13] = biological target: T13, PUM1 PUF domain R6-FRE N1043F + Y1044R + Q1047E (UniProt Q14671)
# T13 sequence: T1 sequence with C216F, W217R, S220E
# [14] = biological target: T14, PUM1 PUF domain R6-FRI N1043F + Y1044R + Q1047I (UniProt Q14671)
# T14 sequence: T1 sequence with C216F, W217R, S220I
# [15] = biological target: T15, PUM1 PUF domain R6-FRL N1043F + Y1044R + Q1047L (UniProt Q14671)
# T15 sequence: T1 sequence with C216F, W217R, S220L
# [16] = biological target: T16, PUM1 PUF domain R6-FRS N1043F + Y1044R + Q1047S (UniProt Q14671)
# T16 sequence: T1 sequence with C216F, W217R
# [17] = biological target: T17, PUM1 PUF domain R6-FRV N1043F + Y1044R + Q1047V (UniProt Q14671)
# T17 sequence: T1 sequence with C216F, W217R, S220V
# [18] = biological target: T18, PUM1 PUF domain R6-FWG N1043F + Y1044W + Q1047G (UniProt Q14671)
# T18 sequence: T1 sequence with C216F, S220G
# [19] = biological target: T19, PUM1 PUF domain R6-FWR N1043F + Y1044W + Q1047R (UniProt Q14671)
# T19 sequence: T1 sequence with C216F, S220R
# [20] = biological target: T20, PUM1 PUF domain R6-FWS N1043F + Y1044W + Q1047S (UniProt Q14671)
# T20 sequence: T1 sequence with C216F
# [21] = biological target: T21, PUM1 PUF domain R6-FWV N1043F + Y1044W + Q1047V (UniProt Q14671)
# T21 sequence: T1 sequence with C216F, S220V
# [22] = biological target: T22, PUM1 PUF domain R6-FYR N1043F + Q1047R (UniProt Q14671)
# T22 sequence: T1 sequence with C216F, W217Y, S220R
sequence,measurement,setting,value
GGCUAGAACUAGUGGAUCCCCCGGCGCCCGGCGGCUCGAGCCCGGGUAAGUGCAAAUAGUCUGCAUGCCGCCGGGCGCCAUGCCUGCAGGUCGACUCUAGAAAACAUG,binding signal (log2 enrichment (interaction score)),[1],< -7.42
same,binding signal (log2 enrichment (interaction score)),[2],-5.44
same,binding signal (log2 enrichment (interaction score)),[3],-4.27
same,binding signal (log2 enrichment (interaction score)),[4],-5.46
same,binding signal (log2 enrichment (interaction score)),[5],-5.03
same,binding signal (log2 enrichment (interaction score)),[6],-3.91
same,binding signal (log2 enrichment (interaction score)),[7],-4.59
same,binding signal (log2 enrichment (interaction score)),[8],< -7.79
same,binding signal (log2 enrichment (interaction score)),[9],-5.51
same,binding signal (log2 enrichment (interaction score)),[10],< -6.95
same,binding signal (log2 enrichment (interaction score)),[11],< -6.72
same,binding signal (log2 enrichment (interaction score)),[12],< -6.61
same,binding signal (log2 enrichment (interaction score)),[13],< -7.98
same,binding signal (log2 enrichment (interaction score)),[14],< -6.97
same,binding signal (log2 enrichment (interaction score)),[15],< -8.14
same,binding signal (log2 enrichment (interaction score)),[16],< -7.79
same,binding signal (log2 enrichment (interaction score)),[17],< -8.05
same,binding signal (log2 enrichment (interaction score)),[18],< -7.3
same,binding signal (log2 enrichment (interaction score)),[19],-5.75
same,binding signal (log2 enrichment (interaction score)),[20],< -6.44
same,binding signal (log2 enrichment (interaction score)),[21],< -7.02
same,binding signal (log2 enrichment (interaction score)),[22],< -6.55

# An excerpt of these results, as tab-separated lines:
sequence	measurement	setting	value
GGCUAGAACUAGUGGAUCCCCCGGCGCCCGGCGGCUCGAGCCCGGGUAAGUGCAAAUAGUCUGCAUGCCGCCGGGCGCCAUGCCUGCAGGUCGACUCUAGAAAACAUG	binding signal (log2 enrichment (interaction score))	[17]	< -8.05
same	binding signal (log2 enrichment (interaction score))	[18]	< -7.3
